The test has as its target p53 tumour suppressor protein (human (endogenous in HK-2 and RCC Shaw)) (UniProt P04637). The experiment in a line: co-IP; HK-2 and RCC Shaw cells co-transfected with the indicated plasmids; lysed in RIPA buffer with 10% glycerol; immunoprecipitation with the p53-specific antibody DO-1; immunoblot with anti-MDM2 (2A10) and anti-HA. On the technique in general: A western blot detects proteins with antibodies after separation by electrophoresis.

These are yes or no findings as the source states them, for the method shown. In cells and extracts the contact can be indirect. Some results given as binding are weak or reduced against the parent protein; the word gives no strength. Tags and fused reporters may be left off the sequences shown.

B1: HA-TRIM8 (protein, UniProt Q9BZR9 1-551)
chain: MAENWKNCFEEELICPICLHVFVEPVQLPCKHNFCRGCIGEAWAKDSGLVRCPECNQAYNQKPGLEKNLKLTNIVEKFNALHVEKPPAALHCVFCRRGPPLPAQKVCLRCEAPCCQSHVQTHLQQPSTARGHLLVEADDVRAWSCPQHNAYRLYHCEAEQVAVCQYCCYYSGAHQGHSVCDVEIRRNEIRKMLMKQQDRLEEREQDIEDQLYKLESDKRLVEEKVNQLKEEVRLQYEKLHQLLDEDLRQTVEVLDKAQAKFCSENAAQALHLGERMQEAKKLLGSLQLLFDKTEDVSFMKNTKSVKILMDRTQTCTSSSLSPTKIGHLNSKLFLNEVAKKEKQLRKMLEGPFSTPVPFLQSVPLYPCGVSSSGAEKRKHSTAFPEASFLETSSGPVGGQYGAAGTASGEGQSGQPLGPCSSTQHLVALPGGAQPVHSSPVFPPSQYPNGSAAQQPMLPQYGGRKILVCSVDNCYCSSVANHGGHQPYPRSGHFPWTVPSQEYSHPLPPTPSVPQSLPSLAVRDWLDASQQPGHQDFYRVYGQPSTKHYVTS
On to B1, for which the binding entry is reported as “binds”.

Source of the values: article PMC4202135.
